Assay results: article PMC8224940
Results are given in words; binding and its absence hold for the method and conditions named. In cells and extracts the contact can be indirect. Some results given as binding are weak or reduced against the parent protein; the word gives no strength. For part of these data: Sequences can lack the tags named with a protein. Values belong to the binder of their own block, whether it stands above or below them.

What was measured:
[1] = molecular target: HA-tagged RIOK2^WT (human) (UniProt Q9BVS4); test: co-IP; HA-RIOK2 (WT or S483A) immunoprecipitated from transfected HEK293 lysate (buffer A with 0.1 M KCl, protein A-Sepharose); endogenous NOB1 detected by Western blot
[2] = molecular target: HA-tagged RIOK2^S483A (human) (UniProt Q9BVS4); test: as above
HA-tagged NOB1 = molecular target: T1, HA-tagged NOB1 (UniProt Q9ULX3); test: co-IP; HA-NOB1 immunoprecipitated from HEK293 cells co-transfected with Flag-RIOK2 (WT, S483A or S483D) (buffer A with 0.1 M KCl); co-purified proteins of pre-40S particles detected by Western blot
T1 sequence: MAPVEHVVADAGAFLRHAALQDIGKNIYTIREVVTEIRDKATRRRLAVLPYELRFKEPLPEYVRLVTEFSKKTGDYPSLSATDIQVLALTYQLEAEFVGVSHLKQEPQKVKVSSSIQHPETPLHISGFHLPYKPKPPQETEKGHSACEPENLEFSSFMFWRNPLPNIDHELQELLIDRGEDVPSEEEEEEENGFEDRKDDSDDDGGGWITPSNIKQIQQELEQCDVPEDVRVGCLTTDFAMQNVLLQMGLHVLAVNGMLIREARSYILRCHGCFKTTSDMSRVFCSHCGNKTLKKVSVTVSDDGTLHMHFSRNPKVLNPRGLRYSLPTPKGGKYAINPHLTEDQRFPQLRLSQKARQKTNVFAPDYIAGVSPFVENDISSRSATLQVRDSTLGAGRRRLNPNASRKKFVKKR

binding [1]: binds
binding [2]: binds
B1: endogenous NOB1 (protein, UniProt Q9ULX3 1-412)
chain: T1 sequence

binding (HA-tagged NOB1): binds
B2: Flag-tagged RIOK2^S483D (protein, UniProt Q9BVS4 1-552)
chain: MGKVNVAKLRYMSRDDFRVLTAVEMGMKNHEIVPGSLIASIASLKHGGCNKVLRELVKHKLIAWERTKTVQGYRLTNAGYDYLALKTLSSRQVVESVGNQMGVGKESDIYIVANEEGQQFALKLHRLGRTSFRNLKNKRDYHKHRHNVSWLYLSRLSAMKEFAYMKALYERKFPVPKPIDYNRHAVVMELINGYPLCQIHHVEDPASVYDEAMELIVKLANHGLIHGDFNEFNLILDESDHITMIDFPQMVSTSHPNAEWYFDRDVKCIKDFFMKRFSYESELFPTFKDIRREDTLDVEVSASGYTKEMQADDELLHPLGPDDKNIETKEGSEFSFSDGEVAEKAEVYGSENESERNCLEESEGCYCRSSGDPEQIKEDSLSEESADARSFEMTEFNQALEEIKGQVVENNSVTEFSEEKNRTENYNRQDGQRVQGGVPAGSDEYEDECPHLIALSSLNREFRPFRDEENVGAMNQYRTRTLDITSSGSAVSCSTIPPELVKQKVKRQLTKQQKSAVRRRLQKGEANIFTKQRRENMQNIKSSLEAASFWGE
